Experimental data from PMC5006124.
Results are given in words; binding and its absence hold for the method and conditions named. In cells and extracts the contact can be indirect. Some binding calls cover weakened binding; strength is not graded here. Tags and fused reporters may be left off the sequences shown.

By UniProt entry, the sequences of proteins in these tests, tags left out. Residues count along the entry.
UniProt Q99IB8, residues 1977-2442: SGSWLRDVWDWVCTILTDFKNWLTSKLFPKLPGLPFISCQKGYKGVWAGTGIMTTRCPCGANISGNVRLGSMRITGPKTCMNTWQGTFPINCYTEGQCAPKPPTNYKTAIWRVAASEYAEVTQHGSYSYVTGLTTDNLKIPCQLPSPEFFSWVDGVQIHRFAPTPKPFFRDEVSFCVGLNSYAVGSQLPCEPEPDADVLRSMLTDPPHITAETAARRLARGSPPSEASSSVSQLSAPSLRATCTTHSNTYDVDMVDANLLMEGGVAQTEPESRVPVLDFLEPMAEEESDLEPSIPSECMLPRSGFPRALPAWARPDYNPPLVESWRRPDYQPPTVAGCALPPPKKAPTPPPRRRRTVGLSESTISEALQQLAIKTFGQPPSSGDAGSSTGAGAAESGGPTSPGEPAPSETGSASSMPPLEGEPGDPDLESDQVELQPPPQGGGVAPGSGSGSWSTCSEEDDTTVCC

B1: TRIM14 fused to the GlucN fragment of Gaussia luciferase (BiLC reporter construct) (protein, UniProt Q14142 1-442)
chain: MAGAATGSRTPGRSELVEGCGWRCPEHGDRVAELFCRRCRRCVCALCPVLGAHRGHPVGLALEAAVHVQKLSQECLKQLAIKKQQHIDNITQIEDATEKLKANAESSKTWLKGKFTELRLLLDEEEALAKKFIDKNTQLTLQVYREQADSCREQLDIMNDLSNRVWSISQEPDPVQRLQAYTATEQEMQQQMSLGELCHPVPLSFEPVKSFFKGLVEAVESTLQTPLDIRLKESINCQLSDPSSTKPGTLLKTSPSPERSLLLKYARTPTLDPDTMHARLRLSADRLTVRCGLLGSLGPVPVLRFDALWQVLARDCFATGRHYWEVDVQEAGAGWWVGAAYASLRRRGASAAARLGCNRQSWCLKRYDLEYWAFHDGQRSRLRPRDDLDRLGVFLDYEAGVLAFYDVTGGMSHLHTFRATFQEPLYPALRLWEGAISIPRLP
B2: HA-tagged TRIM14 (tripartite motif 14) (protein, UniProt Q14142 1-442)
chain: MAGAATGSRTPGRSELVEGCGWRCPEHGDRVAELFCRRCRRCVCALCPVLGAHRGHPVGLALEAAVHVQKLSQECLKQLAIKKQQHIDNITQIEDATEKLKANAESSKTWLKGKFTELRLLLDEEEALAKKFIDKNTQLTLQVYREQADSCREQLDIMNDLSNRVWSISQEPDPVQRLQAYTATEQEMQQQMSLGELCHPVPLSFEPVKSFFKGLVEAVESTLQTPLDIRLKESINCQLSDPSSTKPGTLLKTSPSPERSLLLKYARTPTLDPDTMHARLRLSADRLTVRCGLLGSLGPVPVLRFDALWQVLARDCFATGRHYWEVDVQEAGAGWWVGAAYASLRRRGASAAARLGCNRQSWCLKRYDLEYWAFHDGQRSRLRPRDDLDRLGVFLDYEAGVLAFYDVTGGMSHLHTFRATFQEPLYPALRLWEGAISIPRLP

What was measured:
[1] = target: HCV NS5A fused to the GlucC fragment of Gaussia luciferase (BiLC reporter construct) (hepatitis C virus) (UniProt Q99IB8); experiment: split reporter; BiLC (bi-molecular luminescence complementation) with split Gaussia luciferase; TRIM14-GlucN and HCV protein-GlucC plasmids co-transfected into HEK293T cells, luciferase activity read
[2] = target: Flag-tagged HCV non-structural protein NS5A (hepatitis C virus) (UniProt Q99IB8); experiment: co-IP; HEK293T co-transfected with HA-tagged TRIM14 or truncations and Flag-tagged HCV proteins, 24 h; lysis in 20 mM Tris pH 8.0, 150 mM NaCl, 1% TritonX-100, 1 mM EDTA; immunoprecipitated using anti-Flag, 4 °C, 6-8 hours; western blot

Binder | binding [1] | binding [2]
B1 | binds | –
B2 | – | binds
